# PMC10580588
# By UniProt entry, the sequences of proteins in these tests, tags left out.
# UniProt Q7Z333: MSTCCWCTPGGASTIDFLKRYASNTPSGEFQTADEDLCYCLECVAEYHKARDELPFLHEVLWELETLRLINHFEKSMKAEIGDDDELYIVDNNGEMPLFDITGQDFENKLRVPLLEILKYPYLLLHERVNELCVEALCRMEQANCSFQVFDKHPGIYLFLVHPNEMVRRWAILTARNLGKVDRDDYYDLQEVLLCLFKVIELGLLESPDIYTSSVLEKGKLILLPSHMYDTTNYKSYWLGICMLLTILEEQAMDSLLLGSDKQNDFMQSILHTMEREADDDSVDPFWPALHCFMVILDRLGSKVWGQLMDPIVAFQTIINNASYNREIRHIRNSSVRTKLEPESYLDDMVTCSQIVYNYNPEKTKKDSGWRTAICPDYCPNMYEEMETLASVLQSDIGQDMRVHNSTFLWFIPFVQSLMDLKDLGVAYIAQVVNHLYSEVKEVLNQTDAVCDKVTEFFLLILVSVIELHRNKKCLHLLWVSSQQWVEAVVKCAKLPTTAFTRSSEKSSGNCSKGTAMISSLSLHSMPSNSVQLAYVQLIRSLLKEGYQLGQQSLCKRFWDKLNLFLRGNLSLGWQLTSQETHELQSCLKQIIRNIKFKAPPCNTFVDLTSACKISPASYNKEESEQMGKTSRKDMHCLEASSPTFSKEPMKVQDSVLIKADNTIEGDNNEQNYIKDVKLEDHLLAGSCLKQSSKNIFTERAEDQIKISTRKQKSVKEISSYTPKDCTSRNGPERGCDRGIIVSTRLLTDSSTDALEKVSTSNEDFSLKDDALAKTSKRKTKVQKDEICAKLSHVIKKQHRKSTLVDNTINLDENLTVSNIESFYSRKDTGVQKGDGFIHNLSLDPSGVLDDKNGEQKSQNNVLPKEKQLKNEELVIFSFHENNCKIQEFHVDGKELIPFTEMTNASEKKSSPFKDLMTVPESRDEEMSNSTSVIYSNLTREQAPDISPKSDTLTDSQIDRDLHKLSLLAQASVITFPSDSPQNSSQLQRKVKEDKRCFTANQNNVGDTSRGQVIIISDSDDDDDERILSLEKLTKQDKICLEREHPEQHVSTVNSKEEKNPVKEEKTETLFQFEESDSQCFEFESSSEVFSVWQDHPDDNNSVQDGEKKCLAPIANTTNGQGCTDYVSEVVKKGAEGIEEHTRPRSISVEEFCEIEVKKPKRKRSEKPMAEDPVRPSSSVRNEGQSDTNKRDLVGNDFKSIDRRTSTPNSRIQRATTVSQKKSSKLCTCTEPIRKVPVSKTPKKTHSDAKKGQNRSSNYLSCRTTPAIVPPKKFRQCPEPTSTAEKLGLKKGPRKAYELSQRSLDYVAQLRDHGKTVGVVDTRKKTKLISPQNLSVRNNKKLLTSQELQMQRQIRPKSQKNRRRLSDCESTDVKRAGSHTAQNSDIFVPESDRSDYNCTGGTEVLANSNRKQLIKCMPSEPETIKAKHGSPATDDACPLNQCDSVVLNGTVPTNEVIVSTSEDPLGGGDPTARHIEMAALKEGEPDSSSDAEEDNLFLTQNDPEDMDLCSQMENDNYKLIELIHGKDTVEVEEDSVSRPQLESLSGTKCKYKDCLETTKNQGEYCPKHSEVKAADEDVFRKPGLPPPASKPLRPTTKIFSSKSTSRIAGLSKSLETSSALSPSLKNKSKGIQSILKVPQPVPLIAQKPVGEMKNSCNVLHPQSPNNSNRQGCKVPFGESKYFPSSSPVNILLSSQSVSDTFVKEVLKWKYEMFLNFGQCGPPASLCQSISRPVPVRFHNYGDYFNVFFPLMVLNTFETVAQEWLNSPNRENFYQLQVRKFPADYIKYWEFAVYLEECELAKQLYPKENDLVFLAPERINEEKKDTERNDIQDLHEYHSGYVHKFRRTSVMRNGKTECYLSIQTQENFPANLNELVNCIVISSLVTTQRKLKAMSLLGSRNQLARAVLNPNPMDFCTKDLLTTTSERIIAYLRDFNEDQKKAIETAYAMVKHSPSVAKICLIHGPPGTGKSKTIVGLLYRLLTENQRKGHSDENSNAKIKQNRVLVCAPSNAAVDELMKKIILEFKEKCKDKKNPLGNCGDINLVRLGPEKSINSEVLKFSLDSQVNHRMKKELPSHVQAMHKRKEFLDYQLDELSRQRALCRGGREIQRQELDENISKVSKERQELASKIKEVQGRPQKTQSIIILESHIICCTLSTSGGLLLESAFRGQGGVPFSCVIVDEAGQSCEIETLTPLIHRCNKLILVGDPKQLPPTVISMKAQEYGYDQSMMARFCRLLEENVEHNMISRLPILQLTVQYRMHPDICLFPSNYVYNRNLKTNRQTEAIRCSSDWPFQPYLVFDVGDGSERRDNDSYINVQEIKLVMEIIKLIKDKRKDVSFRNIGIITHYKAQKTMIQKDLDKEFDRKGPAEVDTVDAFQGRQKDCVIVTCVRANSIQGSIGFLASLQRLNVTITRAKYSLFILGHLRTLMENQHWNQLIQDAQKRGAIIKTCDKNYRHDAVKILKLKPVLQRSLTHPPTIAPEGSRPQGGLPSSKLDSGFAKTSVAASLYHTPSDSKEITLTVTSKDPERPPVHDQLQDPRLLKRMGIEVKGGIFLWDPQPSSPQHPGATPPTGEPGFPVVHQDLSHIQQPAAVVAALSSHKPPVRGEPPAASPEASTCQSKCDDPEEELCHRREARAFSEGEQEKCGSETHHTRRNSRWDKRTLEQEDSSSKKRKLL
# UniProt Q06265: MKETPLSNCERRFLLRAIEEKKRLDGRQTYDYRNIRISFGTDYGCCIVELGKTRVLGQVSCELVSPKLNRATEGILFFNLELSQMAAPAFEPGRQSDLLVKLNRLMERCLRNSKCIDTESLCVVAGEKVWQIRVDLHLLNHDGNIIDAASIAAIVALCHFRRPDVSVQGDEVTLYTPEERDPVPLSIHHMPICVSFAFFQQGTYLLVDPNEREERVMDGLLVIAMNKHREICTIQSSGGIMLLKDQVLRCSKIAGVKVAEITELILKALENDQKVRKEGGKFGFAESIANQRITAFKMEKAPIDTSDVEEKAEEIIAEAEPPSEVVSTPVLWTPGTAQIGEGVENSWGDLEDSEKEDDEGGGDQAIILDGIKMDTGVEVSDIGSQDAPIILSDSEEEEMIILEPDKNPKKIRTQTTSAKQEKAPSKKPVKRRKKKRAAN
# These are yes or no findings as the source states them, for the method shown. Binding seen in cells or lysates may run through a third protein. Some binding calls cover weakened binding; strength is not graded here.
# Target: FLAG-tagged full-length senataxin (SETX) (human) (UniProt Q7Z333)
# Test: co-IP; SETX immunoprecipitated, the IP'd material treated with or without RNase A; bands measured by densitometry; IgG only IP as negative control
substance,measurement,value
Exosc9 (from UniProt Q06265 1-439),binding,binds
